Measurements reported in PubChem BioAssay AID1053208 (Peter MacCallum Cancer Centre, 2014)
Shown is one part, drawn at random, of about 17,000 reagents. In the full data, 788 (4.7%) are marked active. 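Calls rest on z-score classes alone; an extra cut-off of viability at most 70% of control was not applied to them.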 Unmarked entries are inactive. Some reagents were tested in more than one well and are listed for each.

Screen: 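Synthetic lethal interactions between gene loss and doxorubicin in osteosarcoma cells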 (primary screen)
Cells: mouse osteosarcoma cells, early-passage culture from an engineered mouse model of fibroblastic bone tumour
Reagent: siRNA pool against mouse genes, 40 nM
Duration: about 120 h (48 h before drug, then 72 h with drug)
Challenge: doxorubicin 100 nM for 72 h, roughly 30-40% inhibitory dose
Measurement: 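Viability read as ATP luminescence after 72 h of 100 nM doxorubicin or none, duplicate wells averaged, scaled to non-targeting siRNA, then expressed as robust z-scores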
Scale: viability z-score with doxorubicin and doxorubicin viability vs non-targeting: higher = more viable cells under doxorubicin; viability z-score without drug: higher = more viable cells with knock-down alone; z-score of drug to no-drug ratio: higher = less drug sensitisation by knock-down
Rule for the call: 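a pool counts as active when its viability z-score with doxorubicin is -2 or below and its z-score without drug lies between -2 and 2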

Target gene,combined z-score class,viability z-score with doxorubicin,viability z-score without drug,z-score of drug to no-drug ratio,doxorubicin viability vs non-targeting
Btnl1,no change with or without drug,-0.22,-0.67,0.34,0.92
Crk,no change with or without drug,-1.12,-0.51,-0.79,0.84
Clec2m,low cell count with doxorubicin only (active),-2.81,0.34,-3.04,0.69
Aldh1a7,no change with or without drug,-0.67,-0.84,0,0.88
Tpmt,no change with or without drug,0.22,0.51,0,0.96
Zbtb12,no change with or without drug,0.45,0,0.56,0.98
C1ql1,no change with or without drug,1.12,-0.84,2.02,1.04
Zfp954,no change with or without drug,-1.35,-0.17,-1.24,0.82
Cinp,no change with or without drug,-1.12,-0.84,-0.56,0.84
Cinp,no change with or without drug,0.22,-0.17,0.45,0.96
Gna11,no change with or without drug,0.45,-0.67,1.12,0.98
Pdcd7,no change with or without drug,1.35,0.84,0.9,1.06
Mageb18,no change with or without drug,-0.79,0.84,-1.24,0.87
F630111L10Rik,no change with or without drug,1.01,1.01,0.45,1.03
Pcdhga8,low cell count with doxorubicin only (active),-2.14,-0.51,-1.8,0.75
Kcnj9,no change with or without drug,0.34,-0.84,1.12,0.97
Tnfrsf12a,no change with or without drug,-0.22,-0.84,0.45,0.92
Rhox4b,no change with or without drug,0,1.18,-0.67,0.94
Thrap3,no change with or without drug,0,0.67,-0.34,0.94
Or2k2,no change with or without drug,1.35,1.85,0.22,1.06
Vmn1r51,no change with or without drug,-0.45,-0.17,-0.22,0.9
Opn3,no change with or without drug,0.56,-1.18,1.57,0.99
Fbxl12os,high cell count without drug only,1.01,2.02,-0.22,1.03

5 consecutive reagents from above:
Target gene,combined z-score class,viability z-score with doxorubicin,viability z-score without drug,z-score of drug to no-drug ratio,doxorubicin viability vs non-targeting
Thrap3,no change with or without drug,0,0.67,-0.34,0.94
Or2k2,no change with or without drug,1.35,1.85,0.22,1.06
Vmn1r51,no change with or without drug,-0.45,-0.17,-0.22,0.9
Opn3,no change with or without drug,0.56,-1.18,1.57,0.99
Fbxl12os,high cell count without drug only,1.01,2.02,-0.22,1.03

Next entries follow:
Target gene,combined z-score class,viability z-score with doxorubicin,viability z-score without drug,z-score of drug to no-drug ratio,doxorubicin viability vs non-targeting
Rxylt1,low cell count with doxorubicin only (active),-2.7,0,-2.7,0.7
Znrf4,no change with or without drug,0.45,-1.52,1.8,0.98
Alms1,high cell count with doxorubicin only,2.36,0.67,2.02,1.15
Pcdhga4,no change with or without drug,-0.22,-0.51,0.22,0.92
Cgas,no change with or without drug,-0.9,0.34,-1.01,0.86
Zfp1,no change with or without drug,1.01,0.17,1.01,1.03
Chrm4,no change with or without drug,1.24,0.17,1.24,1.05
Sowaha,no change with or without drug,-0.9,-0.51,-0.56,0.86
Angel2,no change with or without drug,-1.57,0.51,-1.8,0.8
Map3k20,no change with or without drug,1.35,0.34,1.24,1.06
Or2z9,no change with or without drug,0,-1.01,0.9,0.94
Zbtb48,no change with or without drug,-0.67,-0.51,-0.22,0.88
Ptk7,high cell count without drug only,1.35,2.36,-0.11,1.06
Tlcd4,no change with or without drug,-1.57,0.51,-1.8,0.8
Slc2a10,no change with or without drug,-1.24,1.01,-1.8,0.83
Prpf40b,no change with or without drug,0,-0.17,0.22,0.94
Rccd1,low cell count with doxorubicin only (active),-2.59,-0.34,-2.47,0.71
Unc5a,no change with or without drug,-0.9,-0.51,-0.56,0.86
Omt2b,no change with or without drug,0.45,-0.84,1.24,0.98
Dusp1,no change with or without drug,1.35,-0.51,1.91,1.06
Vps26b,high cell count without drug only,0.67,2.87,-1.01,1
Adam9,no change with or without drug,-0.56,-0.51,-0.11,0.89
Lrrn2,low cell count without drug only,-1.01,-2.19,0.67,0.85
Ing4,no change with or without drug,-0.34,-0.17,-0.11,0.91
Or4d10b,no change with or without drug,-0.45,0,-0.34,0.9
Or9i1,no change with or without drug,-0.22,-0.51,0.22,0.92
Or5h17,no change with or without drug,0,0.17,0,0.94
